Our source for the AC50 values is PubChem BioAssay AID662 (National Center for Advancing Translational Sciences (NCATS), 2007).

The other results are listed elsewhere or left out. These are further read-outs of the screen, such as a control signal, another cell line or another target. No call is given for them. Compounds called inactive in the main read-out are mostly missing here. Words in brackets tell the shape of the fitted curve; partial curves, single points and poor fits give uncertain potencies.

The test is described as follows: Cell signaling CRE-BLA (Fsk stim). The following applies: CHO CRE-bla reporter (cAMP response element driving beta-lactamase), forskolin EC10, beta-lactamase ratio; measured here: 460 nm blue channel. A digest of the protocol: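 The 460nm/530nm emission ratio after CCF4 loading defined %Activity, from which AC50 values were obtained. CRE-bla CHO cells received compound dilution series together with an EC10 level of NKH 477 for 3 hours at 37 degrees Celsius.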
In the case of `Cc1cc(=O)oc2cc(O)cc(O)c12`, the concentration at half-maximal activity (AC50) (as a rule, the concentration at which the activity in the assay is half-maximal) was 12.6 µM [rising, partial curve].

For the compound `CCCCn1c2nc3ccccc3nc2c2c(=O)n(CCC)cnc21`, the AC50 was 1 µM [rising, full curve, poor fit].

`O=c1[nH]cnc2nn(-c3ccccc3)nc12`: the AC50 is 10 µM [rising, single point].

In the case of `O=c1c(-c2ccccc2)nc2cncnc2n1C1CC1`, the concentration at half-maximal activity (AC50) is 12.6 µM [rising, partial curve].

As for `CCN(CC)c1nc2ccccc2n2cnnc12`, the AC50 is 12.6 µM [rising, partial curve].

Turning to `COc1ccc(C2C=C(c3ccc(C)c(C)c3)Nc3ncnn32)c(OC)c1OC` (centres undefined), the AC50 was 12.6 µM [rising, partial curve].

On to `CCOC(=O)CCP(=O)(O)C(O)c1ccc(OC)cc1` (centres undefined), for which the AC50 was 2.51 µM [rising, full curve, poor fit].

As for `CCC(SC1=Nc2ccccc2C2=NC(CC(C)C)C(=O)N12)C(=O)Nc1ccc2c(c1)OCO2` (centres undefined), the AC50 was 10 µM [rising, partial curve].

`CC(C)CC(=O)Nc1cccc(-c2nc3ccccc3o2)c1`: the AC50 is 25.1 µM [rising, single point].

With `CC(C)[C@H](NC(=O)OC(C)(C)C)c1nnc(S(=O)(=O)Cc2c(F)cccc2Cl)o1`, the AC50 is 1 µM [falling, full curve].

With `Cc1ccc(-n2c(=O)c3sccc3n(CC(=O)N3CCCC3)c2=O)cc1`, the half-maximal activity concentration (AC50) was 0.251 µM [falling, full curve].

As to `Cc1ccc2c(CC(=O)OCc3nc(N)nc(Nc4ccccc4C)n3)coc2c1`, the half-maximal activity concentration (AC50) is 3.16 µM [falling, single point].

Take `CCC[C@@H]1C[C@@]1(CCC)C(NS(=O)(=O)c1cccc2cccnc12)c1ccc(Cl)cc1` (some centres undefined): the AC50 is 5.01 µM [falling, single point].

Turning to `COc1ccccc1C(OC(=O)c1cccs1)C(=O)NCc1ccco1` (centres undefined), the AC50 was 0.1 µM [falling, full curve, poor fit].

As to `COCC(=O)Nc1nc(-c2ccccc2)c(C)s1`, the half-maximal activity concentration (AC50) is 5.01 µM [rising, partial curve, poor fit].

With `CCN(CC)c1ccc2c(C)cc(=O)oc2c1`, the concentration at half-maximal activity (AC50) is 25.1 µM [rising, partial curve].

On to `Cc1ccccc1C(=O)Nc1ccc2nc3n(c(=O)c2c1)CCC3`, for which the AC50 was 10 µM [rising, partial curve].

Regarding `CCOC(=O)c1ccc(-c2c(C(=O)OCC)oc3cc(O)c(CC)cc3c2=O)o1`, the AC50 is 31.6 µM [falling, single point].

As to `COCCCN1C(=O)c2[nH]nc(-c3cc(C)cc(C)c3O)c2C1c1ccc(O)c(OC)c1` (centres undefined), the AC50 is 10 µM [rising, partial curve].

Turning to `N#Cc1nc(-c2ccccc2Cl)oc1N1CCOCC1`, the AC50 was 12.6 µM [rising, single point].

Take `CCOC(=O)c1c(C)[nH]c2cc(Br)c(OC)cc12`: the half-maximal activity concentration (AC50) was 10 µM [rising, partial curve].

In the case of `COc1ccc(C(=O)NCCn2cc(SCC(=O)NCc3ccco3)c3ccccc32)cc1`, the AC50 is 0.398 µM [falling, full curve, poor fit].

Take `Cc1ccc(-c2ccc(/C=N/n3cnnc3)o2)cc1Cl`: the AC50 is 15.8 µM [rising, partial curve].

Regarding `Cc1ccc(NC(=O)c2cccc(OCc3c(C)noc3C)c2)c(C)c1`, the half-maximal activity concentration (AC50) is 0.794 µM [falling, partial curve].

In the case of `Cc1ccccc1C(=O)OCn1nnc2ccccc2c1=O`, the AC50 is 12.6 µM [rising, partial curve].

For the compound `CCOC(=O)c1nn(-c2ccc3c(c2)CCN3C(C)=O)cc1O`, the AC50 was 10 µM [rising, single point].

For the compound `COc1cccc2[nH]c3c(N4CCC(C)CC4)ncnc3c12`, the AC50 was 10 µM [rising, single point].

As to `Cc1cc(C)n2nc3nc(N4CCCC4)nc(-c4ccccc4)c3c2n1`, the AC50 is 7.94 µM [rising, partial curve].

Consider `CCCCn1c(NC(C)=O)c(C#N)c2nc3ccccc3nc21`, for which the AC50 was 12.6 µM [rising, partial curve].

On to `N#Cc1nc(-c2ccco2)oc1N1CCN(c2cccc(Cl)c2)CC1`, for which the AC50 was 1.58 µM [rising, partial curve].

Consider `CC(Sc1nc(N(C)C)nc(N2CCOCC2)n1)C(=O)Nc1ccccc1` (centres undefined), for which the AC50 was 15.8 µM [rising, partial curve].

As to `Cc1ccc2c(c1)c1c3n2CCN[C@H]3CCC1`, the AC50 is 20 µM [falling, single point].

As to `Cc1ccc(NC(=O)CSc2n[nH]c(-c3ccncc3)n2)cc1C`, the AC50 is 5.01 µM [falling, single point].

With `COCCn1c(=O)c(-c2ccc(OC)cc2)nc2cnc(Oc3cccc(Cl)c3)nc21`, the AC50 was 3.16 µM [rising, partial curve].

For `CCCSc1ncnc2c1oc1ccccc12`, the AC50 is 12.6 µM [rising, partial curve].

On to `CC(=O)Nc1ccc(S(=O)(=O)Nc2nc3ccccc3nc2N2CCCC2)cc1`, for which the AC50 was 10 µM [rising, partial curve, poor fit].

In the case of `Cn1c(=O)c(-c2ccc(Cl)cc2)nc2cnc(OCc3ccccc3)nc21`, the AC50 was 25.1 µM [rising, single point].

With `CCSc1nc(C)nc2c1oc1ccccc12`, the AC50 was 10 µM [rising, single point].

Regarding `COc1cc(OC)c(C2C(C#N)=C(N)OC3=C2C(=O)CC(C)(C)C3)cc1OC` (centres undefined), the AC50 was 0.158 µM [rising, full curve].

Regarding `CCOC1(NC(=O)c2ccccc2)C(C)=CC(=O)C=C1C`, the AC50 is 3.98 µM [falling, partial curve].

`COc1cccc(C(=O)N2CCN(Cc3cccc(F)c3)CC2)c1`: the AC50 is 3.16 µM [falling, single point].

For `O=C1c2ccncc2C(=O)N1CO`, the AC50 was 0.126 µM [falling, full curve].

On to `CC(C)C[C@@H](CC(=O)N[C@H](CC(=O)N[C@@H]1CCCC[C@H]1C(=O)N[C@H](CC(=O)N[C@@H](CCC(=O)O)CC(=O)O)Cc1ccccc1)C(C)C)NC(=O)[C@@H]1CNCC[C@H]1N`, for which the concentration at half-maximal activity (AC50) is 12.6 µM [falling, partial curve].

In the case of `Cc1noc(C)c1COC(=O)CCC(=O)c1ccc(F)cc1`, the AC50 is 5.01 µM [falling, single point].

Turning to `COCCOC(=O)C1=C(C)NC2=C(C(=O)CCC2)C1c1ccc2c(c1)OCO2` (centres undefined), the half-maximal activity concentration (AC50) was 3.16 µM [rising, partial curve, poor fit].

As to `Cc1cc(C)nc(SCC2COc3ccccc3O2)n1` (centres undefined), the concentration at half-maximal activity (AC50) was 12.6 µM [rising, single point].

For `CCCn1nc(C(=O)NCCc2ccc(S(N)(=O)=O)cc2)c2ccccc2c1=O`, the half-maximal activity concentration (AC50) is 10 µM [rising, partial curve].

With `CC(C(=O)NC1=NCCS1)N1C(=O)c2ccccc2C1=O` (centres undefined), the AC50 is 0.00398 µM [falling, full curve, poor fit].

As to `O=C(CSc1ncn(-c2ccccc2)n1)N1CCc2ccccc21`, the AC50 was 0.316 µM [falling, partial curve, poor fit].

Take `COC(=O)CSc1nnc(CNC(=O)c2ccc(OC)cc2OC)n1C`: the AC50 was 25.1 µM [rising, single point].

As for `CC(=O)N1CCCc2cc(S(=O)(=O)NC(C(=O)NC(C)c3ccccc3)C(C)C)ccc21` (centres undefined), the AC50 was 3.16 µM [falling, single point].

For the compound `CCCc1nc2oc3cc(OC)ccc3c(=O)c2c(=O)n1Cc1ccco1`, the AC50 is 0.0158 µM [rising, full curve].

On to `Cc1ncc(CO)c(CO)c1O`, for which the AC50 was 12.6 µM [falling, single point].

As to `C=CCc1ccccc1OCC(O)CNC` (centres undefined), the AC50 was 5.01 µM [falling, single point].

For `CCNc1ncc2nc(-c3ccccc3)c(=O)n(C)c2n1`, the AC50 was 2 µM [rising, full curve].

Take `Cc1ccn2cc(CCNC(=O)c3ccc(Br)o3)nc2c1`: the AC50 was 10 µM [rising, partial curve].

Consider `COc1ccc(-c2cc(NCCc3ccncc3)n3ncnc3n2)cc1`, for which the AC50 was 10 µM [rising, partial curve].

As for `Cc1ccc(C(C(=O)NCc2ccco2)N(Cc2ccco2)C(=O)CNC(=O)c2ccco2)cc1` (centres undefined), the AC50 was 31.6 µM [falling, single point].

For `CCOC(=O)c1c(C)[nH]c(C(=O)OCC(=O)Nc2cc(C)ccc2OC)c1C`, the AC50 was 7.94 µM [rising, partial curve].

As to `CCOc1ccc(CCNS(=O)(=O)c2c(C)n[nH]c2C)cc1OCC`, the half-maximal activity concentration (AC50) was 10 µM [rising, partial curve].

Turning to `c1ccc(Cn2c(CNc3nc4ccccc4n3CCN3CCOCC3)nc3ccccc32)cc1`, the AC50 is 7.94 µM [falling, partial curve].

Turning to `Cc1ccc(N2CCN(C(=O)CNS(=O)(=O)c3ccc(Br)s3)CC2C)cc1` (centres undefined), the AC50 is 25.1 µM [rising, single point].

Regarding `COc1ccccc1CNc1ncncc1-c1ccc2c(c1)OCO2`, the AC50 was 10 µM [rising, partial curve].

Regarding `CN1CCc2cc(Cl)c(O)cc2[C@@H](c2ccccc2)C1`, the AC50 is 25.1 µM [falling, partial curve, poor fit].

On to `COC(=O)c1c(NC(=O)C2CC2)sc2c1CCCC2`, for which the AC50 was 12.6 µM [rising, single point].

Take `Clc1ccccc1-c1nc(N2CCNCC2)c2ccccc2n1`: the AC50 was 3.16 µM [rising, partial curve].

Consider `Cn1c(=O)n(C)c(=O)n(CC(=O)N2CCCCC2)c1=O`, for which the AC50 is 25.1 µM [rising, single point].

As for `COc1ccc(C(=O)OCCN2C(=O)c3ccccc3C2=O)cc1OC`, the AC50 is 2 µM [rising, partial curve].

Regarding `COc1ccc(CNc2nc3nc(C)c(Cl)c(C)n3n2)cc1OC`, the AC50 is 10 µM [rising, partial curve].
